Source: article PMC11063629
Results are given in words; binding and its absence hold for the method and conditions named. Binding seen in cells or lysates may run through a third protein. A yes stands for co-enrichment or nearness to the bait. Other partners may have been found. Where a sequence is shown, tags or fusion partners need not be part of it.

Chains of the proteins cited; added tags and fusions are not shown.
UniProt Q9P289: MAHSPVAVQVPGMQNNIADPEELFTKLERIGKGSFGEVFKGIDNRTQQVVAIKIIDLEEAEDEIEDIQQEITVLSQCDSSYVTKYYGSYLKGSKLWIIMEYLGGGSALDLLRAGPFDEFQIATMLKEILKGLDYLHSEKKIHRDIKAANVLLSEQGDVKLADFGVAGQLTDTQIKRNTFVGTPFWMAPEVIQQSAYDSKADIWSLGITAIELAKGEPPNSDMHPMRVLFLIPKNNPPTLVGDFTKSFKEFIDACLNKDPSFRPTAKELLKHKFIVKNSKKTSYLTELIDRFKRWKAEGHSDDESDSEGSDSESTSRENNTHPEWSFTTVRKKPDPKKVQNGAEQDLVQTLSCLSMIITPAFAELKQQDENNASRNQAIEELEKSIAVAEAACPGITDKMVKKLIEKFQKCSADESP
UniProt O00506: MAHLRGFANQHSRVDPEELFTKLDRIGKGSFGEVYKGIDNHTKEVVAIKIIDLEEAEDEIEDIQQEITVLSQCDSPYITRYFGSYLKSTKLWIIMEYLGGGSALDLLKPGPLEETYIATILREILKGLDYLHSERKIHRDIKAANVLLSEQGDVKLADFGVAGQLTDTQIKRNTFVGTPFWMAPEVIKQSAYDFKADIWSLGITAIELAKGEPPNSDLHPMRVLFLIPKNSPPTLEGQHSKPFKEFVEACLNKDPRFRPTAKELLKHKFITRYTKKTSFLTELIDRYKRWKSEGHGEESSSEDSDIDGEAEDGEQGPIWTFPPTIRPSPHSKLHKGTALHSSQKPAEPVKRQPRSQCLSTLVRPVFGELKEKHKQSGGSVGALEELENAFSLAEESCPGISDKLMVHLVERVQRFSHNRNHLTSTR
UniProt Q9BUL8: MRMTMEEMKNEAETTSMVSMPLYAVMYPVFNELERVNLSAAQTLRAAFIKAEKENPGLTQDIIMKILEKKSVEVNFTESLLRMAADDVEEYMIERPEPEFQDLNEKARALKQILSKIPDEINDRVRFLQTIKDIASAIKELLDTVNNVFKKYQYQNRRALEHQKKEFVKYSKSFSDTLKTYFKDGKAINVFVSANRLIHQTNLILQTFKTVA

Target: T1, C4orf19-3xFLAG-miniTurbo (human) (UniProt Q8IY42)
T1 sequence: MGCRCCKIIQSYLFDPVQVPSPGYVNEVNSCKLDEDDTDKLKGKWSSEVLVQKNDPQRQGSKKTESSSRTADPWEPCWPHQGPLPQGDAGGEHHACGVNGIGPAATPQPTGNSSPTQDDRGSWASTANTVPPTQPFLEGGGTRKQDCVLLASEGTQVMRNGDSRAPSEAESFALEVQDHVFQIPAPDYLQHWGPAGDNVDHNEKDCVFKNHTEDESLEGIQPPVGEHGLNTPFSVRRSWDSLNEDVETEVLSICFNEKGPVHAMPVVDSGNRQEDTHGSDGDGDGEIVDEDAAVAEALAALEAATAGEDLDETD
Assay: proximity labelling; miniTurboID in MCF10A expressing C4orf19-3xFLAG-miniTurbo; 0.5 μg/mL doxycycline and 40 μM biotin for 4 h; streptavidin-Sepharose capture and mass spectrometry; SAINTexpress, Bayesian false discovery rate <5% against miniTurbo-eGFP-only and untransduced MCF10A controls

Substance	binding
STK26 (from UniProt Q9P289 1-416) (enzyme)	binds
STK25 (from UniProt O00506 1-426) (enzyme)	binds
PDCD10 (from UniProt Q9BUL8 1-212)	binds
